PubChem BioAssay AID743454, Peter MacCallum Cancer Centre | 2014
The deposit covers about 18,000 reagents; this is a random part of them. 450 of all reagents (2.5%) were called active. 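Single biological run; no consistent viability z cut-off exists, so the class columns, not z-scores, define the calls.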 Entries without a mark were called inactive. Reagent sequences are not shown.

Test: 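Genes whose loss kills vorinostat-resistant colon cancer cells under vorinostat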 (primary screen)
System: human HCT116-VR colon cancer cells, selected for vorinostat resistance
Reagents: siRNA pool against human genes, 40 nM siRNA pool
Timing: vorinostat for 24 h, read-out about 72 h after transfection
Treatment: vorinostat at 2.5 µM final
Detection: 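Cell viability by CellTiter-Fluor and caspase 3/7 activity by luminescence, each scaled to mock wells per plate, duplicates averaged, then robust z-scored over all plates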
Direction: viability robust z-score: higher = more viable cells than screen typical; caspase robust z-score: higher = more caspase 3/7 activity than screen typical
Call rule: 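Hits are knock-downs in viability class RV1/RV2 or caspase class CA1/CA2, excluding ones that killed cells in the no-drug cell-count arm; hits then retested with single siRNAs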

gene symbol	viability hit class	caspase hit class	viability robust z-score	caspase robust z-score
RPS19 (ribosomal protein S19)	no change	no change	-3.7	-1.84
C5orf24 (chromosome 5 open reading frame 24)	no change	no change	0.92	0.18
OR51T1 (olfactory receptor family 51 subfamily T member 1)	no change	no change	-2.22	2.1
TUBB4B (tubulin beta 4B class IVb)	no change	no change	-0.19	2.1
ADSS2 (adenylosuccinate synthase 2)	no change	no change	2.25	-0.12
RAB2B (RAB2B, member RAS oncogene family)	no change	no change	0.72	-0.64
DNAJC5B (DnaJ heat shock protein family (Hsp40) member C5 beta)	no change	no change	0.38	-0.94
COQ10B (coenzyme Q10B)	no change	no change	-0.34	-0.96
PCDHA6 (protocadherin alpha 6)	no change	no change	-1.33	3.88
MYO7B (myosin VIIB)	no change	no change	0.72	-1
SPIN1 (spindlin 1)	no change	no change	0.6	-0.24
EIF4H (eukaryotic translation initiation factor 4H)	no change	no change	-0.53	3.59
MED27 (mediator complex subunit 27)	no change	no change	0.6	-0.12
CTXN1 (cortexin 1)	no change	no change	0.36	1.23
PTGDR (prostaglandin D2 receptor)	no change	no change	0.21	0.06
TSLP (thymic stromal lymphopoietin)	no change	no change	0.55	-0.45
CEP70 (centrosomal protein 70)	no change	no change	-0.02	0.26
ANO4 (anoctamin 4)	no change	no change	0.18	-0.34
SLC7A14	no change	no change	-0.08	1.36

Ordered by “viability robust z-score” (ascending): some entries from above.
gene symbol	viability hit class	caspase hit class	viability robust z-score	caspase robust z-score
PCDHA6 (protocadherin alpha 6)	no change	no change	-1.33	3.88
EIF4H (eukaryotic translation initiation factor 4H)	no change	no change	-0.53	3.59
COQ10B (coenzyme Q10B)	no change	no change	-0.34	-0.96
PTGDR (prostaglandin D2 receptor)	no change	no change	0.21	0.06
CTXN1 (cortexin 1)	no change	no change	0.36	1.23
DNAJC5B (DnaJ heat shock protein family (Hsp40) member C5 beta)	no change	no change	0.38	-0.94
SPIN1 (spindlin 1)	no change	no change	0.6	-0.24
MED27 (mediator complex subunit 27)	no change	no change	0.6	-0.12
RAB2B (RAB2B, member RAS oncogene family)	no change	no change	0.72	-0.64
MYO7B (myosin VIIB)	no change	no change	0.72	-1

The results go on.
gene symbol	viability hit class	caspase hit class	viability robust z-score	caspase robust z-score
ENPP3 (ectonucleotide pyrophosphatase/phosphodiesterase 3)	no change	no change	-0.14	-0.18
OR1E1 (olfactory receptor family 1 subfamily E member 1)	no change	no change	0.37	3.42
NR1I2 (nuclear receptor subfamily 1 group I member 2)	no change	no change	0.4	-0.46
BRAT1 (BRCA1 associated ATM activator 1)	no change	no change	0.27	0.02
ARL4D (ARF like GTPase 4D)	no change	no change	-0.54	2.54
SACK1C (scaffolding CK1 anchoring protein C)	no change	no change	-0.46	-0.85
BCL2L1 (BCL2 like 1)	no change	no change	-3.09	3.88
NPHP1 (nephrocystin 1)	no change	no change	-0.74	0.34
CCDC92 (coiled-coil domain containing 92)	no change	no change	-0.62	-0.18
ADRA1A (adrenoceptor alpha 1A)	no change	no change	0.23	-0.23
CD36 (CD36 molecule (CD36 blood group))	no change	no change	0.1	-0.52
WFDC11 (WAP four-disulfide core domain 11)	no change	no change	1.2	-0.28
TBCD (tubulin folding cofactor D)	no change	no change	-0.25	-0.85
PPP4R3B (protein phosphatase 4 regulatory subunit 3B)	no change	no change	0.71	0.14
CHRNB4 (cholinergic receptor nicotinic beta 4 subunit)	no change	no change	-2.15	-0.42
H2BC9 (H2B clustered histone 9)	no change	no change	-0.15	1.28
USP53 (ubiquitin specific peptidase 53)	no change	no change	1.4	-0.65
LAPTM4B (lysosomal protein transmembrane 4 beta)	no change	no change	0.62	-0.38
VAV3 (vav guanine nucleotide exchange factor 3)	no change	no change	1.27	0.11
MAPK9 (mitogen-activated protein kinase 9)	no change	no change	-0.33	-0.62
LPAR2 (lysophosphatidic acid receptor 2)	no change	no change	-0.57	1.14
RPRM (reprimo, TP53 dependent G2 arrest mediator homolog)	no change	no change	0.41	3.09
RNASE7 (ribonuclease A family member 7)	no change	no change	-1.34	-0.28
IHH (Indian hedgehog signaling molecule)	no change	no change	0.96	-0.68
EMID1 (EMI domain containing 1)	no change	no change	0.19	4.78
CD70 (CD70 molecule)	no change	no change	-0.15	-0.9
TEAD2 (TEA domain transcription factor 2)	no change	no change	0.34	-0.43
CENPQ (centromere protein Q)	no change	no change	-0.08	-0.07
MROH9 (maestro heat like repeat family member 9)	no change	no change	2.23	-0.02
BCL2L14 (BCL2 like 14)	no change	no change	-1	3.34
DDI1 (DDI proteasomal shuttling factor 1)	no change	no change	-3.58	2.03
CLEC4G (C-type lectin domain family 4 member G)	no change	no change	0.83	-0.6
TRPS1 (transcriptional repressor GATA binding 1)	no change	no change	1.62	0.9
WNT5A (Wnt family member 5A)	no change	no change	-0.18	0.29
NRIP3 (nuclear receptor interacting protein 3)	no change	no change	0.44	-0.63
CCDC74B (coiled-coil domain containing 74B)	no change	no change	0.73	2.42
ETFRF1 (electron transfer flavoprotein regulatory factor 1)	no change	no change	1.5	-0.16
ZHX2 (zinc fingers and homeoboxes 2)	no change	no change	-0.48	-0.14
